Data source: PubChem BioAssay AID1259254 (NCATS, 2017)

- Assay: 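Finding genes that stop cells copying their DNA twice in one cycle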 (primary screen)
- System: human HCT116 colorectal cancer cells
- Reagents: single siRNA against human genes
- Duration: 3 days
- Measured: 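Nuclei stained with Hoechst and imaged; cell-cycle phase assigned by DNA content; G2 share scaled per plate, non-targeting siRNA 0%, GMNN siRNA 100%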
- Scale: G2 robust z-score and G2 cells, % of GMNN control: higher = more G2 cells, more excess DNA replication
- Rule for the call: 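An siRNA counts as active if its G2 robust z-score lies at least 5 MADs above the screen median; here such calls match roughly 38% of GMNN control or more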
In all, the deposit lists about 59,000 reagents; this is a random part of them. About 1,550 of all reagents (2.6%) were called active. 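G2 share is only a proxy for re-replication; each gene was hit by three separate siRNAs, and active genes were retested.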 Reagents against one gene are numbered here. Further read-outs or replicates are left out here. Not given: the amount of reagent.

For MX1 #1, how do the results read?
G2 robust z-score: 0.282; G2 cells, % of GMNN control: 4.95; call: inactive

How did the screen score MX1 #2?
G2 robust z-score: 1.18; G2 cells, % of GMNN control: 11.3; call: inactive

With MX1 #3, how do the results read?
G2 robust z-score: -0.62; G2 cells, % of GMNN control: -1.39; call: inactive

With GRPEL2 #1, what was measured?
G2 robust z-score: -0.324; G2 cells, % of GMNN control: 0.687; call: inactive

What is on record for GRPEL2 #2?
G2 robust z-score: 0.975; G2 cells, % of GMNN control: 9.83; call: inactive

For GRPEL2 #3, what does the deposit list?
G2 robust z-score: -0.411; G2 cells, % of GMNN control: 0.0745; call: inactive

Which result is listed for LARP4B #1?
G2 robust z-score: -0.229; G2 cells, % of GMNN control: 1.36; call: inactive

With LARP4B #2, what was measured?
G2 robust z-score: 1.76; G2 cells, % of GMNN control: 15.4; call: inactive

With LARP4B #3, how do the results read?
G2 robust z-score: -0.737; G2 cells, % of GMNN control: -2.22; call: inactive

For DNAJB3P #1, how do the results read?
G2 robust z-score: 0.392; G2 cells, % of GMNN control: 5.72; call: inactive

For DNAJB3P #2, what was measured?
G2 robust z-score: 0.401; G2 cells, % of GMNN control: 5.79; call: inactive

With DNAJB3P #3, what was measured?
G2 robust z-score: 1.62; G2 cells, % of GMNN control: 14.3; call: inactive

Part of the list above, reduced to “G2 robust z-score”:
GRPEL2 #2: 0.975
GRPEL2 #3: -0.411
LARP4B #1: -0.229

More reagents follow.
What did the screen give for TLR6 #1?
G2 robust z-score: -1.04; G2 cells, % of GMNN control: -4.32; call: inactive

For TLR6 #2, how do the results read?
G2 robust z-score: 0.626; G2 cells, % of GMNN control: 7.37; call: inactive

With TLR6 #3, what was measured?
G2 robust z-score: 1.64; G2 cells, % of GMNN control: 14.5; call: inactive

What is on record for KCNA7 #1?
G2 robust z-score: 0.0444; G2 cells, % of GMNN control: 3.28; call: inactive

What did the screen give for KCNA7 #2?
G2 robust z-score: 0.238; G2 cells, % of GMNN control: 4.64; call: inactive

What did the screen give for KCNA7 #3?
G2 robust z-score: -0.0367; G2 cells, % of GMNN control: 2.71; call: inactive

How did the screen score TCIM #1?
G2 robust z-score: 1.73; G2 cells, % of GMNN control: 15.1; call: inactive

With TCIM #2, how do the results read?
G2 robust z-score: 0.425; G2 cells, % of GMNN control: 5.95; call: inactive

With TCIM #3, what does the deposit list?
G2 robust z-score: -0.454; G2 cells, % of GMNN control: -0.224; call: inactive

For CHEK2 #1, what does the deposit list?
G2 robust z-score: -0.0913; G2 cells, % of GMNN control: 2.33; call: inactive

With CHEK2 #2, what was measured?
G2 robust z-score: -1.08; G2 cells, % of GMNN control: -4.63; call: inactive

Which result is listed for CHEK2 #3?
G2 robust z-score: -0.947; G2 cells, % of GMNN control: -3.69; call: inactive

For ARL6IP6 #1, what was measured?
G2 robust z-score: 1.5; G2 cells, % of GMNN control: 13.5; call: inactive

How did the screen score ARL6IP6 #2?
G2 robust z-score: -0.206; G2 cells, % of GMNN control: 1.52; call: inactive

What did the screen give for ARL6IP6 #3?
G2 robust z-score: -0.38; G2 cells, % of GMNN control: 0.295; call: inactive

For ATAD3B #1, what does the deposit list?
G2 robust z-score: 2.89; G2 cells, % of GMNN control: 23.3; call: inactive

With ATAD3B #2, what was measured?
G2 robust z-score: -0.89; G2 cells, % of GMNN control: -3.29; call: inactive

What did the screen give for ATAD3B #3?
G2 robust z-score: -0.569; G2 cells, % of GMNN control: -1.04; call: inactive
